# Test results: patent US20170226518A1, “COMPOSITIONS AND METHODS FOR TREATING CANCER” (Autotelic LLC, priority 2016, published 2017)
# For at least one compound, name, drawing or mass did not settle the structure.
# Legend:
# Assay type in all cases: cell-based
# [1] = tested on: TGFβ2; assay: TGFβ2 secretion in A-172 glioma cells; settings: 7 days, treatment schedule 2*2/1*3 d
# Description: (§1) A-172 glioma cells were treated with a combination of AP12009 (trabedersen) 0 to 10 μM) and different concentrations of TMZ (temozolomide) for 7 days (treatment schedule 2*2/1*3 d).
# (§2) In summary there is no clear beneficial effect in combining AP12009 with TMZ in A-172 cells.
# [2] = tested on: A-172 glioma cells; assay: Proliferation of A-172 glioma cells; settings: 7 days, treatment schedule 2*2/1*3 d
# Description: as §1, §2
# [3] = tested on: A-172 glioma cells; assay: Migration of A-172 glioma cells; settings: TMZ 64/160/400 μM as monotherapy
# Description: as §1
smiles,measurement,setting,value
"Cn1nnc2c(C(N)=O)ncn2c1=O [TMZ, temozolomide, reference compound]",effect on TGFβ2 secretion,[1],dose dependently reduced
same,effect on cell proliferation,[2],dose dependently reduced proliferation
same,effect on migration of A-172 cells,[3],dose-dependently reduced migration
